Laboratory results as given in the supplement of paper PMC10849652.
This is one part of the list.

By UniProt entry, the sequences of proteins in these tests, tags left out. Where a name states a change or a piece, a line headed by the entry shows the natural chain unless it says otherwise.
UniProt Q8WXE9: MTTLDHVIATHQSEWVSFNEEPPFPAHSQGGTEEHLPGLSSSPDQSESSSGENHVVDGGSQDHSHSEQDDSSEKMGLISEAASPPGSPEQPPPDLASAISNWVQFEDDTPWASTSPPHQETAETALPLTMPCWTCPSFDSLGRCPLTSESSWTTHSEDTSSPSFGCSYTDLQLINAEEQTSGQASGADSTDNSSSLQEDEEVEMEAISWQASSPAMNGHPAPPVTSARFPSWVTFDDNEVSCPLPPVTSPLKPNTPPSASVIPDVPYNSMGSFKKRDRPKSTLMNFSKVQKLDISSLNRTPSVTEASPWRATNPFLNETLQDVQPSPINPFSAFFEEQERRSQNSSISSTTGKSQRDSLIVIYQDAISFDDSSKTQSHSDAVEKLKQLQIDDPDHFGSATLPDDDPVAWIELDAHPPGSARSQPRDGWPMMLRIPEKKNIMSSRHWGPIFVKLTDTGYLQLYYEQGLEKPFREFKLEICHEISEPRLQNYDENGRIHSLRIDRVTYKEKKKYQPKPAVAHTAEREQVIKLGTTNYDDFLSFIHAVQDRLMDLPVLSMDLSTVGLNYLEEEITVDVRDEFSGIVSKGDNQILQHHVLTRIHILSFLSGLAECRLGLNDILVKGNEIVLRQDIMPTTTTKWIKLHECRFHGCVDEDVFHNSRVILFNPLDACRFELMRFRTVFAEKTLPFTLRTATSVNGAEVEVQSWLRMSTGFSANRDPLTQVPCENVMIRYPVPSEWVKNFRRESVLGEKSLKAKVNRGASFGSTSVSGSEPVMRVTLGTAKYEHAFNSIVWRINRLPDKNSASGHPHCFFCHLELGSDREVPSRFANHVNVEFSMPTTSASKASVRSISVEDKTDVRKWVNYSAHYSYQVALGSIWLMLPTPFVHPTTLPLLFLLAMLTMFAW
UniProt Q92750: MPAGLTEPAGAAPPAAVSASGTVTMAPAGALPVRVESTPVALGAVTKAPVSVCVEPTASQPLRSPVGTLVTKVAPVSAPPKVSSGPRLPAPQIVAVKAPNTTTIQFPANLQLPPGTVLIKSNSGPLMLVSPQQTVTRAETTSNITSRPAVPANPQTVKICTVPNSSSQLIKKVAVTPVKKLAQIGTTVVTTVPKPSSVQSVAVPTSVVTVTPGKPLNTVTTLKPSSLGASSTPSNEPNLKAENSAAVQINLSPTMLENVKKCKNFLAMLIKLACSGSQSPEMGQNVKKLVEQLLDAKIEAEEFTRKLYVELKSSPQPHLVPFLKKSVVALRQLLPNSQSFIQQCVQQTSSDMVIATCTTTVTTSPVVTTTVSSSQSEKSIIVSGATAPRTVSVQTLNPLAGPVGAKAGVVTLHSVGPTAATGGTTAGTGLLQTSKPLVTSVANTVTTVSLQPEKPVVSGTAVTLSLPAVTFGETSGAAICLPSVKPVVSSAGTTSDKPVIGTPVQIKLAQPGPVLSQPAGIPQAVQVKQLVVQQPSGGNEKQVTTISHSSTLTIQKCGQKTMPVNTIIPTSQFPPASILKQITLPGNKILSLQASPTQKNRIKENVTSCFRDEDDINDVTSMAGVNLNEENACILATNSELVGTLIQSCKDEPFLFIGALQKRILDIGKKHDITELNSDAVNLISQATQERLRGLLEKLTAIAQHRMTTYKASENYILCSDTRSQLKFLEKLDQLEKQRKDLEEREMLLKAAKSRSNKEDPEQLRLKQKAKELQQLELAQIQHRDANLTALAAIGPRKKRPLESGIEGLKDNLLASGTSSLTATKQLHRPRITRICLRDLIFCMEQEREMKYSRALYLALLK
UniProt O00506, whole entry, looked up: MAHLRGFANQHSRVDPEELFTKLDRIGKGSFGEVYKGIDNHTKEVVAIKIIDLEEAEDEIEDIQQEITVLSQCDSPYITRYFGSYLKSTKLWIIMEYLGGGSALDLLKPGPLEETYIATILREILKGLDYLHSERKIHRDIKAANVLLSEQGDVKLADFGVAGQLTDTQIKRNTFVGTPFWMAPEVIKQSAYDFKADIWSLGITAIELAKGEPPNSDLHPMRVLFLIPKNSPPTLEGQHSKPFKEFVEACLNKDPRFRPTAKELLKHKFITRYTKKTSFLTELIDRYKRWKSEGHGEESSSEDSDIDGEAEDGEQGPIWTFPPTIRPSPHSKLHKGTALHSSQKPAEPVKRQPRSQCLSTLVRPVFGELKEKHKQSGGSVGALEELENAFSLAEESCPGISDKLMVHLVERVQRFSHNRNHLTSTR
UniProt O75410: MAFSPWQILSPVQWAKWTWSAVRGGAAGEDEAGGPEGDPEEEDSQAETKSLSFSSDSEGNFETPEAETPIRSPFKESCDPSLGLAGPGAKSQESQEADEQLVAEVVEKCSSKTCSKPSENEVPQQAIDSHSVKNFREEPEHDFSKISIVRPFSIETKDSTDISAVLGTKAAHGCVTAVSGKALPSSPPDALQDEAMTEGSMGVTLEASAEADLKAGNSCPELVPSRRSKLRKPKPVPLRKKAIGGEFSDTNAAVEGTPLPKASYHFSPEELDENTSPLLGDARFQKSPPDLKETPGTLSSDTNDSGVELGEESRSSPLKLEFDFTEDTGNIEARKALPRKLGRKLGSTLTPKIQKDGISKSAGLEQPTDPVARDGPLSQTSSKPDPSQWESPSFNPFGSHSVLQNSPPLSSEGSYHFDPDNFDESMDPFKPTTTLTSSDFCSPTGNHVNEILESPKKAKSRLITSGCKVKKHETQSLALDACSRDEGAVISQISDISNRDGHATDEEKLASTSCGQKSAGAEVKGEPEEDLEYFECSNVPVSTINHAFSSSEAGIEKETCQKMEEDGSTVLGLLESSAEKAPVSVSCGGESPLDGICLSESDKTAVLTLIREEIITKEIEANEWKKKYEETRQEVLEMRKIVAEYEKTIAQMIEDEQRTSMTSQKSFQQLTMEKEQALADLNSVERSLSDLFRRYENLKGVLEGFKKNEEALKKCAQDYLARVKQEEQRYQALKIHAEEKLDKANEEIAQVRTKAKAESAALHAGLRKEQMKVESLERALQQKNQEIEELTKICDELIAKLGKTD
UniProt Q9UNE7: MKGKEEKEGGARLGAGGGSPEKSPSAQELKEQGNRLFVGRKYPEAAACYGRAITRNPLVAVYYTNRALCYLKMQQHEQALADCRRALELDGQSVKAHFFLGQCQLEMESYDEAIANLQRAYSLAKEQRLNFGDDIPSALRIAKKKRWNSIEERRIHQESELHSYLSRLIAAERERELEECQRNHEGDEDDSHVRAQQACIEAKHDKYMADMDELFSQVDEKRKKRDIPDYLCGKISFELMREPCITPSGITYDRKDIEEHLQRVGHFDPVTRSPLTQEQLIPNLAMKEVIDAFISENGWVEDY
UniProt Q5T5C0: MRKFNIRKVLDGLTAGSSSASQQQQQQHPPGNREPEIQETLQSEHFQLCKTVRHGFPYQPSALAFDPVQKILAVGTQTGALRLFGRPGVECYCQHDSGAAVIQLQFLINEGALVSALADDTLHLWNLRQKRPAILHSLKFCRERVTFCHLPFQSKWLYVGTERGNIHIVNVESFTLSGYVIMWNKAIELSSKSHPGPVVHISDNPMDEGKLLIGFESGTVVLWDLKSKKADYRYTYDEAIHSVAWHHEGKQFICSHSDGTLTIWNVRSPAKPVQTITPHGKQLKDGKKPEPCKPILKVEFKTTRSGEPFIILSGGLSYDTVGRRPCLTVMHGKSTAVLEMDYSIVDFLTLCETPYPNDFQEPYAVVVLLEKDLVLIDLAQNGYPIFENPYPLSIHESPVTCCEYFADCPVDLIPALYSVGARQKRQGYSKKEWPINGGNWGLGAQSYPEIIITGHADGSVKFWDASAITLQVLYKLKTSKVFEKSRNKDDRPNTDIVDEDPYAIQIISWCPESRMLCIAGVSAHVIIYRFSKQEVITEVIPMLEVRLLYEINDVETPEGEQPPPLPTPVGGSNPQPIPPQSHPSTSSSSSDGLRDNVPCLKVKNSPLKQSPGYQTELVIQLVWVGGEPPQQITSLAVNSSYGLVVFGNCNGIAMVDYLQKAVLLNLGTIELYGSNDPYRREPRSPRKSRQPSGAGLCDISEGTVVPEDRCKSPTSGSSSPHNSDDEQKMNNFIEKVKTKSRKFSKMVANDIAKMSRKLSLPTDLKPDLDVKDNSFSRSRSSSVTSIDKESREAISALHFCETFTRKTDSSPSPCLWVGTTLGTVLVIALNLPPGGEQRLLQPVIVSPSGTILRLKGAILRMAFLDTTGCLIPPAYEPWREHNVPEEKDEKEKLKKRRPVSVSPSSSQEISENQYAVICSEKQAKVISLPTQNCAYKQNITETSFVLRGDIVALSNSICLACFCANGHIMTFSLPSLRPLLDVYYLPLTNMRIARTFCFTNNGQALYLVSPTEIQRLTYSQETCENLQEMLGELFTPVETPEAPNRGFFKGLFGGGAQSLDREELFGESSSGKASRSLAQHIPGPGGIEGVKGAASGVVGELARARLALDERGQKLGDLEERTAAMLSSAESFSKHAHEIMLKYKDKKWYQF
UniProt Q12962, whole entry, looked up: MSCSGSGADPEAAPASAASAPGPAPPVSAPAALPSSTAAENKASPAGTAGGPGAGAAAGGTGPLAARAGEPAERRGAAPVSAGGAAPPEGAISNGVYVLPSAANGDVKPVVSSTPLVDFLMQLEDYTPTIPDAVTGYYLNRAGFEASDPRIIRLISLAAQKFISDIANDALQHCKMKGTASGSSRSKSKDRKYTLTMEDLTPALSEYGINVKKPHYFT
UniProt O75683: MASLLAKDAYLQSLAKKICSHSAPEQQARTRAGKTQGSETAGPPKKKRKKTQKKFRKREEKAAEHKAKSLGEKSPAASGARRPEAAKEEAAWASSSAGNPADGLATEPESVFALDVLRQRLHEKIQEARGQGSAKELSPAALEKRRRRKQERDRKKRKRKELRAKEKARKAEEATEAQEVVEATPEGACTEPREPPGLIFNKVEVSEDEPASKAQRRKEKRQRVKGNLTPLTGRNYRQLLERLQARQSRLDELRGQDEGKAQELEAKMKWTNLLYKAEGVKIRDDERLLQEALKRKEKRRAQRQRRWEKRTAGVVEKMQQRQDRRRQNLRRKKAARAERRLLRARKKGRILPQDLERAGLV
UniProt Q15208: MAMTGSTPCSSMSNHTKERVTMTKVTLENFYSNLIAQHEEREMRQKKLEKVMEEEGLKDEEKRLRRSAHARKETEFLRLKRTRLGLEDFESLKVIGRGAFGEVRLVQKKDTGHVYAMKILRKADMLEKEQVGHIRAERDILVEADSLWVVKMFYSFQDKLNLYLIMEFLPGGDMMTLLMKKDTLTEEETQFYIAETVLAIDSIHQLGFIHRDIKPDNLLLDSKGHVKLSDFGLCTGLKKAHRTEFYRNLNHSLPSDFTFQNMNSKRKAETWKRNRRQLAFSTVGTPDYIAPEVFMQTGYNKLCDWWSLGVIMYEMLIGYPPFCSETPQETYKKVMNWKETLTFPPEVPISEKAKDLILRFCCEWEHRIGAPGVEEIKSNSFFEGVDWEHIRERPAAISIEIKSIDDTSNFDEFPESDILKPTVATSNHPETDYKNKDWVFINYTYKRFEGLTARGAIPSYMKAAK
UniProt Q9NYJ8: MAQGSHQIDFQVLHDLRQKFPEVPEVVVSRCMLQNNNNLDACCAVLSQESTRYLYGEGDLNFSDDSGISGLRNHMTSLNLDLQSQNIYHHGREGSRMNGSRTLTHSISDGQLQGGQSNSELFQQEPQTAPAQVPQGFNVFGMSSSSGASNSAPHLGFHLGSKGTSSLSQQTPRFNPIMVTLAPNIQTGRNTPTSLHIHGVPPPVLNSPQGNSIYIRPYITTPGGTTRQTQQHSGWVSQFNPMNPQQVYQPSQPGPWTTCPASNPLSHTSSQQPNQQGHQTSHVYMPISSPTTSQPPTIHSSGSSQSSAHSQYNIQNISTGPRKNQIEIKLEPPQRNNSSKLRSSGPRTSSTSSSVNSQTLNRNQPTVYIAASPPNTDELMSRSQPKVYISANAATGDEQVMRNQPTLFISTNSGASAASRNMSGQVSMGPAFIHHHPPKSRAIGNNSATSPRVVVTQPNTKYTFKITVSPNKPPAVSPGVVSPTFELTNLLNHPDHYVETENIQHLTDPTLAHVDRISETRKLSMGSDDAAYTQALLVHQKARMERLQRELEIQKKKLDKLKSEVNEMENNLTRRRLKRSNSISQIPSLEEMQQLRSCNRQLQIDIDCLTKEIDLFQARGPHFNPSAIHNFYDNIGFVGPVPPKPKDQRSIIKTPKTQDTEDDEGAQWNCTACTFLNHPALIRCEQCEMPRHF
UniProt O15400: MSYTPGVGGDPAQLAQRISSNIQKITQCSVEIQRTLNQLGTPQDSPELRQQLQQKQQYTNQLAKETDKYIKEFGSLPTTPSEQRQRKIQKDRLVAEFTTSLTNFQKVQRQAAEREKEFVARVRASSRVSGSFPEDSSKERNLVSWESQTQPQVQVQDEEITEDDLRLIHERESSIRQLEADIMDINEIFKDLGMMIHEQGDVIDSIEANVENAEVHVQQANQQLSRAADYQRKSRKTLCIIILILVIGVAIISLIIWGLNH

Legend:
Test in all cases: log2 fold change, soluble protein after heating vs DMSO (PISA); higher = thermal stabilisation; K562 lysate, 10 uM; active = over 0.2 and 3.5 SD of the protein, either way, in both replicates (recomputed)
nilotinib = compound: Cc1cn(-c2cc(NC(=O)c3ccc(C)c(Nc4nccc(-c5cccnc5)n4)c3)cc(C(F)(F)F)c2)cn1 [nilotinib]
Procedure, shortened: (§1)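 Dounce homogenisation of K562 pellets in PBS pH 7.4 with 1 mM MgCl2 produced a crude extract, used at 1 mg/mL protein. Exposure to 10 μM compound lasted 30 min, and aliquots were then heated for 3 min across 48°C-58°C, pooled and brought to 0.5% NP-40 at 4°C. The supernatant after 21,000xg for 90 min was quantified by TMTpro 16plex LC-MS/MS with channel sums equalised. Duplicate values are given as log-two fold change in thermal stability relative to solvent controls.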

[1] = compound: Cc1nc(Nc2n[nH]c3c2CN(C(=O)N[C@H](CN(C)C)c2ccccc2)C3(C)C)c2sccc2n1
Procedure, shortened: as §1

dasatinib = compound: Cc1nc(Nc2ncc(C(=O)Nc3c(C)cccc3Cl)s2)cc(N2CCN(CCO)CC2)n1 [dasatinib]
Procedure, shortened: as §1

[2] = compound: Cc1ncc(-c2ccnc(Nc3ccc(S(C)(=O)=O)cc3)n2)n1C(C)C
Procedure, shortened: as §1

[3] = compound: Cn1cc(-c2ccc3c(c2)CCN3C(=O)Cc2cccc(C(F)(F)F)c2)c2c(N)ncnc21
Procedure, shortened: as §1

quisinostat = compound: Cn1cc(CNCC2CCN(c3ncc(C(=O)NO)cn3)CC2)c2ccccc21 [quisinostat]
Procedure, shortened: as §1

tipifarnib = compound: Cn1cncc1[C@@](N)(c1ccc(Cl)cc1)c1ccc2c(c1)c(-c1cccc(Cl)c1)cc(=O)n2C [tipifarnib]
Procedure, shortened: as §1

[4] = compound: NC(=O)Nc1cc(-c2cccc(F)c2)sc1C(=O)N[C@H]1CCCNC1
Procedure, shortened: as §1

[5] = compound: NC(=O)c1cnc(N[C@@H]2CCCC[C@@H]2N)nc1Nc1cccc(-n2nccn2)c1
Procedure, shortened: as §1

[6] = compound: NC1(c2ccc(-c3nc4ccn5c(=O)[nH]nc5c4cc3-c3ccccc3)cc2)CCC1
Procedure, shortened: as §1

[7] = compound: NCC(=O)Nc1ccc(-n2nc(C(F)(F)F)cc2-c2ccc3c(ccc4ccccc43)c2)cc1
Procedure, shortened: as §1

vorinostat = compound: O=C(CCCCCCC(=O)Nc1ccccc1)NO [vorinostat]
Procedure, shortened: as §1

silmitasertib = compound: O=C(O)c1ccc2c(c1)nc(Nc1cccc(Cl)c1)c1ccncc12 [silmitasertib]
Procedure, shortened: as §1

[8] = compound: O=C1NC(=O)C(c2cnc3ccccn23)=C1c1cn2c3c(cc(F)cc13)CN(C(=O)N1CCCCC1)CC2
Procedure, shortened: as §1

entospletinib = compound: c1cn2cc(-c3ccc4cn[nH]c4c3)nc(Nc3ccc(N4CCOCC4)cc3)c2n1 [entospletinib]
Procedure, shortened: as §1

Measured: log2 fold change

STXBP4 (UniProt Q6ZWJ1)
inactive: nilotinib 0.049 | [1] 0.028 | dasatinib 0.001 | [2] 0.023 | [3] -0.005 | quisinostat -0.043 | tipifarnib 0.021 | [4] -0.006 | [5] 0.008 | [6] -0.016 | [7] -0.019 | vorinostat -0.21 | silmitasertib 0.033 | [8] 0.022 | entospletinib -0.018

STON2 isoform 3 (UniProt Q8WXE9)
inactive: nilotinib -0.042 | [1] -0.047 | dasatinib -0.015 | [2] -0.056 | [3] 0.014 | quisinostat -0.053 | tipifarnib 0.067 | [4] 0 | [5] 0.166 | [6] -0.031 | [7] 0.042 | vorinostat -0.006 | silmitasertib 0.026 | [8] -0.118 | entospletinib -0.034

SYNE1 (UniProt Q8NF91)
inactive: nilotinib -0.049 | [1] -0.022 | dasatinib 0.005 | [2] 0.176 | [3] -0.065 | quisinostat -0.271 | tipifarnib 0.036 | [4] 0.165 | [5] -0.084 | [6] -0.067 | [7] 0.216 | vorinostat 0.106 | silmitasertib -0.083 | [8] 0.357 | entospletinib 0.028

TAF4B (UniProt Q92750)
inactive: nilotinib -0.083 | [1] -0.008 | dasatinib 0.03 | [2] -0.017 | [3] 0.075 | quisinostat 0.064 | tipifarnib 0.053 | [4] 0.022 | [5] 0.042 | [6] -0.025 | [7] -0.001 | vorinostat 0.169 | silmitasertib -0.038 | [8] 0.031 | entospletinib 0.057

STK25 (UniProt O00506)
inactive: nilotinib 0.037 | [1] 0.265 | dasatinib 0.235 | [2] 0.026 | [3] 0.059 | quisinostat 0.013 | tipifarnib -0.027 | [4] 0.165 | [5] 0.032 | [6] -0.009 | [7] -0.024 | vorinostat -0.06 | silmitasertib 0.051 | [8] -0.03 | entospletinib -0.043

STRN4 isoform 3 (UniProt Q9NRL3)
inactive: nilotinib 0.127 | [1] -0.052 | dasatinib -0.001 | [2] 0.048 | [3] 0.051 | quisinostat 0.036 | tipifarnib 0.064 | [4] 0.013 | [5] -0.037 | [6] 0.036 | [7] 0.005 | vorinostat -0.009 | silmitasertib 0.005 | [8] -0.008 | entospletinib -0.011

TACC1 (UniProt O75410)
inactive: nilotinib 0.044 | [1] 0.018 | dasatinib 0.013 | [2] -0.038 | [3] 0.015 | quisinostat 0.023 | tipifarnib -0.085 | [4] -0.002 | [5] -0.008 | [6] -0.018 | [7] -0.03 | vorinostat 0.014 | silmitasertib 0.024 | [8] 0.005 | entospletinib -0.02

STUB1 (UniProt Q9UNE7)
active: vorinostat -0.33
inactive: nilotinib 0.031 | [1] -0.027 | dasatinib -0.037 | [2] 0.027 | [3] 0.004 | quisinostat -0.06 | tipifarnib -0.011 | [4] 0.053 | [5] 0.015 | [6] 0.004 | [7] -0.012 | silmitasertib 0.015 | [8] 0.006 | entospletinib 0.019

SUZ12 (UniProt Q15022)
inactive: nilotinib 0.03 | [1] -0.025 | dasatinib 0.037 | [2] -0.013 | [3] -0.008 | quisinostat -0.005 | tipifarnib 0.016 | [4] -0.007 | [5] -0.013 | [6] -0.026 | [7] -0.064 | vorinostat -0.156 | silmitasertib 0.023 | [8] 0.021 | entospletinib 0.043

STOML2 (UniProt Q9UJZ1)
inactive: nilotinib -0.017 | [1] -0.01 | dasatinib 0.004 | [2] 0.017 | [3] -0.001 | quisinostat 0.035 | tipifarnib 0.005 | [4] 0.018 | [5] 0.002 | [6] -0.003 | [7] 0.03 | vorinostat 0.129 | silmitasertib -0.021 | [8] 0.028 | entospletinib 0.011

Reprinted from the listing (two entries):
STON2 isoform 3 (UniProt Q8WXE9)
inactive: nilotinib -0.042 | [1] -0.047 | dasatinib -0.015 | [2] -0.056 | [3] 0.014 | quisinostat -0.053 | tipifarnib 0.067 | [4] 0 | [5] 0.166 | [6] -0.031 | [7] 0.042 | vorinostat -0.006 | silmitasertib 0.026 | [8] -0.118 | entospletinib -0.034

SYNE1 (UniProt Q8NF91)
inactive: nilotinib -0.049 | [1] -0.022 | dasatinib 0.005 | [2] 0.176 | [3] -0.065 | quisinostat -0.271 | tipifarnib 0.036 | [4] 0.165 | [5] -0.084 | [6] -0.067 | [7] 0.216 | vorinostat 0.106 | silmitasertib -0.083 | [8] 0.357 | entospletinib 0.028

The list goes on.

SUPT5H (UniProt O00267)
inactive: nilotinib -0.012 | [1] -0.004 | dasatinib 0.009 | [2] -0.02 | [3] 0.018 | quisinostat 0.007 | tipifarnib 0.035 | [4] 0 | [5] -0.003 | [6] -0.001 | [7] 0.031 | vorinostat -0.158 | silmitasertib 0.008 | [8] -0.026 | entospletinib -0.004

STMN3 (UniProt Q9NZ72)
inactive: nilotinib -0.068 | [1] 0.218 | dasatinib 0.035 | [2] -0.041 | [3] -0.032 | quisinostat 0.006 | tipifarnib 0.176 | [4] -0.022 | [5] -0.006 | [6] 0.052 | [7] -0.028 | vorinostat 0.065 | silmitasertib -0.033 | [8] -0.004 | entospletinib 0.07

STXBP5 (UniProt Q5T5C0)
inactive: nilotinib 0.031 | [1] 0.007 | dasatinib 0.006 | [2] 0.019 | [3] 0.004 | quisinostat -0.035 | tipifarnib 0.031 | [4] 0.004 | [5] -0.015 | [6] -0.027 | [7] 0.029 | vorinostat 0.047 | silmitasertib -0.037 | [8] 0.006 | entospletinib -0.004

TAF10 (UniProt Q12962)
inactive: nilotinib -0.01 | [1] 0.037 | dasatinib 0.026 | [2] -0.016 | [3] 0.001 | quisinostat -0.004 | tipifarnib -0.006 | [4] 0.012 | [5] -0.03 | [6] -0.092 | [7] 0.014 | vorinostat 0.026 | silmitasertib -0.027 | [8] 0.026 | entospletinib -0.008

SURF6 (UniProt O75683)
inactive: nilotinib -0.015 | [1] -0.016 | dasatinib 0.018 | [2] -0.009 | [3] 0.02 | quisinostat 0.046 | tipifarnib -0.014 | [4] -0.032 | [5] 0.011 | [6] 0 | [7] -0.02 | vorinostat 0.13 | silmitasertib 0.015 | [8] -0.01 | entospletinib 0.018

SYNJ2BP-COX16, A0A087WYV9
inactive: nilotinib 0.071 | [1] 0.037 | dasatinib 0.09 | [2] 0.058 | [3] 0.017 | quisinostat 0.059 | tipifarnib 0.015 | [4] -0.004 | [5] 0.235 | [6] -0.055 | [7] 0.092 | vorinostat 0.124 | silmitasertib 0.041 | [8] -0.035 | entospletinib -0.034

STK38 (UniProt Q15208)
inactive: nilotinib -0.009 | dasatinib -0.003 | [2] 0.078 | [3] 0.064 | quisinostat -0.14 | tipifarnib -0.029 | [5] 0.054 | [6] 0.036 | [7] 0.021 | silmitasertib 0.16 | [8] -0.029 | entospletinib 0
active: [1] 0.858 | [4] 0.563 | vorinostat -0.424

SYNE2 isoform 2 (UniProt Q8WXH0)
inactive: nilotinib 0.086 | [1] -0.034 | dasatinib 0.032 | [2] -0.002 | [3] -0.024 | quisinostat -0.176 | tipifarnib 0.005 | [4] -0.043 | [5] -0.021 | [6] -0.091 | [7] 0.071 | vorinostat 0.088 | silmitasertib -0.015 | [8] 0.051 | entospletinib -0.003

STX12 (UniProt Q86Y82)
inactive: nilotinib 0.002 | [1] -0.024 | dasatinib 0.03 | [2] 0.001 | [3] -0.004 | quisinostat -0.008 | tipifarnib -0.003 | [4] -0.009 | [5] 0.012 | [6] -0.007 | [7] 0.001 | vorinostat 0.11 | silmitasertib -0.036 | [8] 0.017 | entospletinib 0.038

TAB2 (UniProt Q9NYJ8)
inactive: nilotinib 0.01 | [1] 0.071 | dasatinib 0.001 | [2] -0.025 | [3] -0.014 | quisinostat -0.078 | tipifarnib -0.095 | [4] 0.016 | [5] 0.061 | [6] 0.105 | [7] -0.007 | vorinostat -0.012 | silmitasertib 0.176 | [8] 0.023 | entospletinib 0.078

STX7 (UniProt O15400)
inactive: nilotinib 0.002 | [1] -0.02 | dasatinib -0.009 | [2] -0.012 | [3] 0.007 | quisinostat -0.001 | tipifarnib 0.043 | [4] -0.009 | [5] -0.022 | [6] 0.014 | [7] 0.02 | vorinostat 0.135 | silmitasertib -0.021 | [8] -0.001 | entospletinib 0.005
